PubChem BioAssay AID1508597 – Cure First – 2020
Shown is a random part of the about 2,100 reagents, in one setting of the screen. 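Calls flag viability under 80% in either arm, not effects specific to rucaparib; the reference for percent is not stated.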 A reagent listed more than once was tested more than once; the source does not tell the runs apart. Reagent sequences are not shown. Not given: the 100% reference.

- Assay: 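Survival screen with siRNA in ovarian cancer cells derived from patients, with or without rucaparib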 (primary screen)
- Cell system: human ovarian carcinoma lines grown from tumours: OCI-P5x (papillary serous) and OCI-C5x (clear cell)
- Reagents: siRNA pool against human genes, 1.25 pmol siRNA per well
- Duration: 72 h or 96 h, depending on the cell culture
- Conditions: rucaparib 20 µM (about IC30) or vehicle, present until read-out
- Rucaparib or vehicle: Rucaparib
- Cell line: OCI-C5x (clear cell)
- Detection: 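Luminescent ATP-based viability assay read 72 or 96 h after transfection, depending on culture, given as normalised percent viability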
- Reading the numbers: viability, normalised: higher = more viable cells remaining
- Call rule: 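Active when normalised viability falls below 80 percent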
- Meaning of the calls: active = viability under 80%; inactive = viability 80% or more

RECQL4 (RecQ like helicase 4), technical replicate 1 scored viability, normalised (%) = 64.4; active.
RECQL4 (RecQ like helicase 4), technical replicate 1 showed viability, normalised (%) = 56.7; active.
RECQL4 (RecQ like helicase 4), technical replicate 1 scored viability, normalised (%) = 102; inactive.
RECQL4 (RecQ like helicase 4), technical replicate 2 gave viability, normalised (%) = 78.3; active.
RECQL4 (RecQ like helicase 4), technical replicate 2 gave viability, normalised (%) = 64.5; active.
RECQL4 (RecQ like helicase 4), technical replicate 2 scored viability, normalised (%) = 66.4; active.
RECQL4 (RecQ like helicase 4), technical replicate 3 showed viability, normalised (%) = 64.8; active.
RECQL4 (RecQ like helicase 4), technical replicate 3 scored viability, normalised (%) = 77; active.
For RECQL4 (RecQ like helicase 4), technical replicate 3, the entry reads viability, normalised (%) = 35.9; active.
For TAF5L (TATA-box binding protein associated factor 5 like), technical replicate 1 the deposit lists viability, normalised (%) = 47.4; active.
For TAF5L (TATA-box binding protein associated factor 5 like), technical replicate 2, the values are viability, normalised (%) = 48.1; active.
For TAF5L (TATA-box binding protein associated factor 5 like), technical replicate 3 the deposit lists viability, normalised (%) = 45.9; active.
IL10 (interleukin 10), technical replicate 1 scored viability, normalised (%) = 94.7; inactive.
IL10 (interleukin 10), technical replicate 2 gave viability, normalised (%) = 77.3; active.
IL10 (interleukin 10), technical replicate 3 scored viability, normalised (%) = 67.9; active.
DDX43 (DEAD-box helicase 43), technical replicate 1 gave viability, normalised (%) = 62.1; active.
With DDX43 (DEAD-box helicase 43), technical replicate 2 the deposit lists viability, normalised (%) = 53.6; active.
DDX43 (DEAD-box helicase 43), technical replicate 3 scored viability, normalised (%) = 58.8; active.
MYOD1 (myogenic differentiation 1), technical replicate 1 scored viability, normalised (%) = 62.6; active.
MYOD1 (myogenic differentiation 1), technical replicate 2 gave viability, normalised (%) = 43; active.
MYOD1 (myogenic differentiation 1), technical replicate 3 scored viability, normalised (%) = 38.5; active.
For MTA1 (metastasis associated 1), technical replicate 1, the values are viability, normalised (%) = 26.2; active.
With MTA1 (metastasis associated 1), technical replicate 2, the values are viability, normalised (%) = 35.4; active.
MTA1 (metastasis associated 1), technical replicate 3 showed viability, normalised (%) = 38.3; active.
With BANP (BTG3 associated nuclear protein), technical replicate 1 the deposit lists viability, normalised (%) = 59.8; active.
For BANP (BTG3 associated nuclear protein), technical replicate 2 the deposit lists viability, normalised (%) = 40.9; active.
BANP (BTG3 associated nuclear protein), technical replicate 3 showed viability, normalised (%) = 46.1; active.
RPA1 (replication protein A1), technical replicate 1 scored viability, normalised (%) = 60.8; active.
For RPA1 (replication protein A1), technical replicate 1 the deposit lists viability, normalised (%) = 36.2; active.
With RPA1 (replication protein A1), technical replicate 2, the values are viability, normalised (%) = 43.3; active.
RPA1 (replication protein A1), technical replicate 2 gave viability, normalised (%) = 45.6; active.
With RPA1 (replication protein A1), technical replicate 3, the values are viability, normalised (%) = 35.6; active.
RPA1 (replication protein A1), technical replicate 3 gave viability, normalised (%) = 35.7; active.
